Assay results as given in US20060239913A1 (priority 2003, published 2006).

Assay: peptide synthesis
Conditions: conjugation step, SYMMETRY C18 5 um 100 A 250*4.6 mm

Substance: p-aminobenzoyl-Gly-Pro-D-Leu-D-Ala-NHOH on Gd^3+ chelator (DOTA)
- crude HPLC purity: 92%
